Laboratory results: publication PMC3549954, “A Lectin with Highly Potent Inhibitory Activity toward Breast Cancer Cells from Edible Tubers of Dioscorea opposita cv. Nagaimo” (PLoS ONE, 2013)

Tested on: T1, nagaimo lectin
T1 construct: native, purified from supermarket tubers (Q-Sepharose, Mono Q, Superdex 75); 70-kDa dimer of 35-kDa subunits (70 kDa in non-reducing SDS-PAGE); N-terminus NPFVFFVAINNP
Test: inhibition of hemagglutination (rabbit red blood cells)
Assay type: biochemical, Dioscorea polystachya
Settings: PBS pH 7.2, room temperature; sugar binding site

SMILES | minimal concentration required for reduction of hemagglutinating activity
OC[C@H]1O[C@H](OC[C@H]2O[C@H](O[C@]3(CO)O[C@H](CO)[C@@H](O)[C@@H]3O)[C@H](O)[C@@H](O)[C@@H]2O)[C@H](O)[C@@H](O)[C@H]1O [raffinose] | 40 mM
OC[C@H]1O[C@@H](O[C@H]2[C@H](O)[C@@H](O)C(O)O[C@@H]2CO)[C@H](O)[C@@H](O)[C@H]1O (stereo partly drawn) [lactose] | 5 mM
OC[C@H]1OC(O)[C@H](O)[C@@H](O)[C@H]1O (stereo partly drawn) [galactose] | 20 mM
